Where a name gives a salt, the structure may show the parent alone. Some of the results follow. This data set is noisy: repeats of one test often differ as much as different tests do.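 In a drug-repurposing library screen, luminescence reads luciferase driven by eight TEAD-binding elements, stably integrated into human kidney-derived cells. Compounds scoring over five robust Z scores above the plate mean are called hits.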

The test system of the experiment is HEK293A TEAD-LUC reporter. The experiment in a line: TEAD-luciferase reporter activity (YAP activation), robust Z score vs plate; higher = stronger YAP/TEAD activation. The conditions noted are these: 24 h. A general note: Reporter assays use an easily measured gene product as a stand-in for the process of interest.

For the molecule `COc1ccc2c(c1)C=C1Cn3c-2c(C2CCCCC2)c2ccc(cc23)C(=O)NS(=O)(=O)N(C)CCOCCN(C)C1=O`, the TEAD-luciferase reporter activity is, setting by setting: (compound concentration: 200 nM) inactive: 0.106; (compound concentration: 2 uM) inactive: 0.26; (compound concentration: 10 uM) inactive: -0.706.
Taken in the same sequence, the figures for `CCOC(=O)c1cccnc1` were inactive: -1.79, inactive: -0.0438 and inactive: -0.0341.
As for `CN1CCC(=C2c3ccccc3CSc3sccc32)CC1`, the TEAD-luciferase reporter activity reads like this: (compound concentration: 200 nM) inactive: -1.46; (compound concentration: 2 uM) inactive: 0.286; (compound concentration: 10 uM) inactive: -0.648.
Consider `CN(C)CCCN1c2ccccc2CCc2ccc(Cl)cc21` [Clomipramine], for which the TEAD-luciferase reporter activity was inactive: -0.0554 (compound concentration: 200 nM), inactive: 3.35 (compound concentration: 2 uM) and inactive: 2.65 (compound concentration: 10 uM).
As to `CCN1CC(CCN2CCOCC2)C(c2ccccc2)(c2ccccc2)C1=O` (centres undefined) [doxapram hydrochloride hydrate], under “compound concentration: 2 uM”, the TEAD-luciferase reporter activity is inactive: 0.159.
As for `CCN1CC(CCN2CCOCC2)C(c2ccccc2)(c2ccccc2)C1=O` (centres undefined), the TEAD-luciferase reporter activity was inactive: 0.0255 (compound concentration: 200 nM) and inactive: 0.125 (compound concentration: 10 uM).
Take `CC(C)(C)c1cc(CCCOCc2cccnc2)cc(C(C)(C)C)c1O` [Nicanartine]: the TEAD-luciferase reporter activity is inactive: 2.08 (compound concentration: 200 nM), inactive: -0.755 (compound concentration: 2 uM) and inactive: 3.12 (compound concentration: 10 uM).
With `CC1=C(C(=O)OCCN(Cc2ccccc2)c2ccccc2)C(c2cccc([N+](=O)[O-])c2)C(P2(=O)OCC(C)(C)CO2)=C(C)N1` (centres undefined) [efonidipine], the TEAD-luciferase reporter activity (compound concentration: 200 nM) is inactive: -0.433, the TEAD-luciferase reporter activity (compound concentration: 2 uM) is inactive: 0.913 and the TEAD-luciferase reporter activity (compound concentration: 10 uM) is inactive: -1.11.
For `COc1ccc2[nH]cc(CCNC(=O)c3cc(=O)cco3)c2c1` [Piromelatine], the TEAD-luciferase reporter activity reads like this: (compound concentration: 200 nM) inactive: -0.298; (compound concentration: 2 uM) inactive: 1.68; (compound concentration: 10 uM) inactive: 1.6.
With `Nc1nncs1` [Aminothiadiazole], the TEAD-luciferase reporter activity is inactive: -2.81 (compound concentration: 200 nM), inactive: -0.149 (compound concentration: 2 uM) and inactive: -0.399 (compound concentration: 10 uM).
`CC(=O)N(O)CCCCCNC(=O)CCC(=O)N(O)CCCCCNC(=O)CCC(=O)N(O)CCCCCN` [deferoxamine, Sanomune]: the TEAD-luciferase reporter activity (compound concentration: 2 uM) is inactive: -1.02.
Take `CC(=O)N(O)CCCCCNC(=O)CCC(=O)N(O)CCCCCNC(=O)CCC(=O)N(O)CCCCCN` [Deferoxamine Mesylate]: the TEAD-luciferase reporter activity (compound concentration: 200 nM) is inactive: -0.0427 and the TEAD-luciferase reporter activity (compound concentration: 10 uM) was inactive: -0.917.
As to `CC(C)Nc1cccnc1N1CCN(C(=O)c2cc3cc(O)ccc3[nH]2)CC1`, the TEAD-luciferase reporter activity is, setting by setting: (compound concentration: 200 nM) inactive: -2.49; (compound concentration: 2 uM) inactive: -1.15; (compound concentration: 10 uM) inactive: -0.238.
As for `CNC(=O)c1cccc(NCC(=O)NCCc2ccc(OC)c(OC)c2)c1` [Ecabapide], under “compound concentration: 2 uM”, the TEAD-luciferase reporter activity is inactive: 0.781.
Take `CNC(=O)c1cccc(NCC(=O)NCCc2ccc(OC)c(OC)c2)c1`: the TEAD-luciferase reporter activity by setting is: (compound concentration: 200 nM) inactive: -1.5; (compound concentration: 10 uM) inactive: 0.562.
`COc1ccc(CCNC(=O)C(Cc2c[nH]c3ccccc23)NC(C)=O)cc1` (centres undefined): the TEAD-luciferase reporter activity reads like this: (compound concentration: 200 nM) inactive: -1.76; (compound concentration: 2 uM) inactive: -0.394; (compound concentration: 10 uM) inactive: -1.66.
On to `CC1(C)C=C(c2cccc[n+]2[O-])c2cc(C(F)(F)C(F)(F)F)ccc2C1=O`, for which the TEAD-luciferase reporter activity (compound concentration: 200 nM) is inactive: -1.61, the TEAD-luciferase reporter activity (compound concentration: 2 uM) is inactive: -2.45 and the TEAD-luciferase reporter activity (compound concentration: 10 uM) was inactive: -0.98.
Consider `Cc1c(O)cccc1C(=O)N[C@@H](CSc1ccccc1)[C@H](O)CN1C[C@H]2CCCC[C@H]2C[C@H]1C(=O)NC(C)(C)C`, for which the TEAD-luciferase reporter activity was inactive: -1.84 (compound concentration: 200 nM) and inactive: -0.718 (compound concentration: 10 uM).
For `Cc1c(O)cccc1C(=O)N[C@@H](CSc1ccccc1)[C@H](O)CN1C[C@H]2CCCC[C@H]2C[C@H]1C(=O)NC(C)(C)C` [nelfinavir mesylate], under “compound concentration: 2 uM”, the TEAD-luciferase reporter activity is inactive: -0.642.
As to `CN(C)CCC(Sc1cccc2ccccc12)c1cccs1` (centres undefined), the TEAD-luciferase reporter activity (compound concentration: 200 nM) was inactive: -0.832, the TEAD-luciferase reporter activity (compound concentration: 2 uM) is inactive: -0.549 and the TEAD-luciferase reporter activity (compound concentration: 10 uM) is inactive: -1.02.
Taken in the same sequence, the figures for `N=C(N)NCCC[C@H](NC(=O)[C@@H]1CC2CCCCC2N1C(=O)[C@H]1Cc2ccccc2CN1C(=O)[C@H](CO)NC(=O)[C@H](Cc1cccs1)NC(=O)CNC(=O)[C@@H]1C[C@@H](O)CN1C(=O)[C@@H]1CCCN1C(=O)[C@@H](CCCNC(=N)N)NC(=O)[C@@H](N)CCCNC(=N)N)C(=O)O` (some centres undefined) [icatibant] were inactive: 0.581, inactive: 0.398 and inactive: 0.976.
On the same counts, the results for `C=C[C@]1(C)C[C@@H](O)[C@]2(C)C(C)CCC3(CCC(=O)C32)[C@@H](C)[C@@H]1O` (some centres undefined) are inactive: 1.12, inactive: -1.66 and inactive: -1.13.
For `COC(=O)c1cn(C2CC2)c2c(OC(F)F)c(-c3ccc4c(c3)CN[C@@H]4C)ccc2c1=O`, the TEAD-luciferase reporter activity (compound concentration: 200 nM) is inactive: -1.04, the TEAD-luciferase reporter activity (compound concentration: 2 uM) is inactive: 0.385 and the TEAD-luciferase reporter activity (compound concentration: 10 uM) is inactive: -0.667.
On the same counts, the results for `Cc1ccc(S(=O)(=O)NC(C(=O)O)C(C)C)cc1` (centres undefined) are inactive: -1.01, inactive: -0.78 and inactive: -1.07.
As to `CC(C)[C@H](NC(=O)[C@H](CC(=O)O)NC(=O)CCCOc1ccc(C(=N)N)cc1)C(=O)O`, the TEAD-luciferase reporter activity by setting is: (compound concentration: 200 nM) inactive: -1.07; (compound concentration: 2 uM) inactive: 2.22; (compound concentration: 10 uM) inactive: -0.125.
Taken in the same sequence, the figures for `CCCn1c(C(C)N2CCN(S(=O)(=O)c3ccc(Br)cc3)CC2)nc2ccccc2c1=O` (centres undefined) were inactive: 0.171, inactive: 0.0187 and inactive: -1.72.
Regarding `N=C(N)Nc1ccc(C(=O)Oc2ccc(S(N)(=O)=O)cc2)cc1`, the TEAD-luciferase reporter activity runs as follows: (compound concentration: 200 nM) inactive: -0.558; (compound concentration: 2 uM) inactive: 0.273; (compound concentration: 10 uM) inactive: -0.337.
